PubChem BioAssay AID504793 | Drosophila RNAi Screening Center, 2011

- Test: 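Knock-downs allowing continued mitosis even though DNA is damaged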 (primary screen)
- System: Drosophila S2R+ cells
- Reagent: long dsRNA against Drosophila genes, about 0.25 µg dsRNA per well
- Time to read-out: 4 days of dsRNA, then 4 hours of drug before read-out
- Treatment: doxorubicin 0.5 µM for 4 hours to cause double-strand breaks, in cells also given a low, harmless dose of dsRNA against nbs to sensitise the assay
- Measurement: 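Per-well count of mitotic cells stained for phospho-histone H3 after doxorubicin exposure, used as mitotic index; counts are raw and not normalised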
- Scale: mitotic cells: higher = more cells in mitosis, weaker G2 arrest
- Hit rule: 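a call needs confirmation in secondary tests, with other dsRNAs and a check of mitotic timing without damage, not just a high primary count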
- Meaning of the calls: active = confirmed in follow-up tests; inactive = not confirmed
In all, the deposit lists about 23,000 reagents; below is a random part of those that have a named target and a result. Of all reagents, 62 (0.27%) are marked active. 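Calls come from follow-up tests whose scores are not deposited, so confirmed genes may have low counts here; counts are not normalised per plate.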 Raw values vary from plate to plate and are shown uncorrected.

no.	predicted target	DRSC id	mitotic cells, replicate 1	activity call
1	csw	DRSC18756	9	inactive
2	csw	DRSC23326	14	inactive
3	csw	DRSC36600	9	inactive
4	TwdlV	DRSC24972	8	inactive
5	mTerf3	DRSC11759	1	inactive
6	CG15395	DRSC00409	6	inactive
7	betaNACtes3	DRSC20183	12	inactive
8	CG8067	DRSC07065	2	inactive
9	Ir60a	DRSC04212	5	inactive
10	M6	DRSC11869	9	inactive
11	dgo	DRSC06134	9	inactive
12	dgo	DRSC26782	4	inactive
13	CG6154	DRSC15977	9	inactive
14	CG6154	DRSC28363	4	inactive
15	h-cup	DRSC15973	9	inactive
16	h-cup	DRSC24713	8	inactive
17	CG13847	DRSC23172	1	inactive
18	Eig71Ee	DRSC11152	6	inactive
19	CG13482	DRSC10024	5	inactive
20	CG13482	DRSC23975	1	inactive
21	Obp56b	DRSC06551	3	inactive
22	sphe	DRSC20203	6	inactive
23	BEAF-32	DRSC05927	13	inactive
24	CG8176	DRSC16394	4	inactive
25	CG8097	DRSC20079	7	inactive
26	Ltn1	DRSC11056	3	inactive
27	Ltn1	DRSC11058	7	inactive
28	CG31789	DRSC01645	3	inactive
29	CG31789	DRSC25757	7	inactive
30	CG10486	DRSC09735	3	inactive
31	CG31735	DRSC01518	8	inactive
32	CG31735	DRSC30072	2	inactive
33	CheB38c	DRSC02389	8	inactive
34	mid	DRSC02977	9	inactive
35	mid	DRSC21493	19	inactive
36	mid	DRSC25557	1	inactive
37	CG1971	DRSC15406	7	inactive
38	CG1971	DRSC28390	1	inactive
39	ND-MLRQ	DRSC11913	5	inactive
40	mldr	DRSC18100	12	inactive
41	mldr	DRSC27990	4	inactive
42	Dbp21E2	DRSC00616	4	inactive
43	Dbp21E2	DRSC28425	8	inactive
44	hoe1	DRSC00265	7	inactive
45	hoe1	DRSC00333	8	inactive
46	hoe1	DRSC00353	8	inactive
47	Hsc70-5	DRSC07442	14	inactive
48	Hsc70-5	DRSC24015	5	inactive
49	dnr1	DRSC03948	2	inactive
50	dnr1	DRSC04122	2	inactive
51	dnr1	DRSC26101	6	inactive
52	ro	DRSC17046	8	inactive
53	ro	DRSC23565	6	inactive
54	mag	DRSC11787	5	inactive
55	mag	DRSC25641	6	inactive
56	CG32808	DRSC17689	6	inactive
57	CG32808	DRSC28726	3	inactive
58	par-1	DRSC05792	4	inactive
59	par-1	DRSC06098	4	inactive
60	par-1	DRSC06616	5	inactive
61	par-1	DRSC07660	6	inactive
62	par-1	DRSC07661	4	inactive
63	par-1	DRSC36775	9	inactive
64	pnr	DRSC17027	6	inactive
65	pnr	DRSC25347	7	inactive
66	CG18598	DRSC15356	6	inactive
67	Rh7	DRSC10529	5	inactive
68	Rh7	DRSC28331	5	inactive
69	mrt	DRSC15484	6	inactive
70	mrt	DRSC29283	5	inactive
71	CG13407	DRSC14583	13	inactive
72	CG13407	DRSC25675	7	inactive
73	snsl	DRSC00543	5	inactive
74	snsl	DRSC25714	13	inactive
75	CG8435	DRSC07179	2	inactive
76	CG8435	DRSC29713	6	inactive
77	w	DRSC18850	8	inactive
78	w	DRSC30065	5	inactive
79	CG32588	DRSC22285	9	inactive
80	LSm1	DRSC04458	9	inactive
81	CG18265	DRSC10310	5	inactive
82	mtg	DRSC16256	4	inactive
83	mtg	DRSC24674	8	inactive
84	Or22c	DRSC00766	5	inactive
85	Or22c	DRSC26292	7	inactive
86	CG3009	DRSC18263	5	inactive
87	CG3009	DRSC28666	2	inactive
88	CG10973	DRSC09813	10	inactive
89	Cyp9b1	DRSC07389	7	inactive
90	Cyp9b1	DRSC24745	8	inactive
91	Tctp	DRSC15649	7	inactive
92	Tctp	DRSC29100	6	inactive
93	RpL11	DRSC07537	13	inactive
94	RpL11	DRSC26217	4	inactive
95	Scp2	DRSC13166	4	inactive
96	Scp2	DRSC16854	8	inactive
97	Hakai	DRSC02031	8	inactive
98	eIF3i	DRSC03464	8	inactive
99	ftz	DRSC12626	1	inactive
100	ftz	DRSC28088	2	inactive
101	VhaM9.7-a	DRSC08289	6	inactive
102	VhaM9.7-a	DRSC28340	4	inactive
103	alpha-Est10	DRSC12613	7	inactive
104	alpha-Est10	DRSC25456	5	inactive
105	CG12325	DRSC06130	5	inactive
106	Cyp6w1	DRSC04909	6	inactive
107	Brd	DRSC09685	4	inactive
108	CG15167	DRSC02468	4	inactive
109	CG30156	DRSC04959	5	inactive
110	Nos	DRSC03381	8	inactive

18 successive records from above, for reference:
no.	predicted target	DRSC id	mitotic cells, replicate 1	activity call
35	mid	DRSC21493	19	inactive
36	mid	DRSC25557	1	inactive
37	CG1971	DRSC15406	7	inactive
38	CG1971	DRSC28390	1	inactive
39	ND-MLRQ	DRSC11913	5	inactive
40	mldr	DRSC18100	12	inactive
41	mldr	DRSC27990	4	inactive
42	Dbp21E2	DRSC00616	4	inactive
43	Dbp21E2	DRSC28425	8	inactive
44	hoe1	DRSC00265	7	inactive
45	hoe1	DRSC00333	8	inactive
46	hoe1	DRSC00353	8	inactive
47	Hsc70-5	DRSC07442	14	inactive
48	Hsc70-5	DRSC24015	5	inactive
49	dnr1	DRSC03948	2	inactive
50	dnr1	DRSC04122	2	inactive
51	dnr1	DRSC26101	6	inactive
52	ro	DRSC17046	8	inactive
